Laboratory results as given in patent US7129234B2, “Phenyl heterocyclyl ethers” (Pfizer Inc., priority 2001, dated 2006).
Structures can show the parent of a compound that is named as a salt. Some results were stated once for a whole list of compounds, not compound by compound.

Chains of the proteins cited; added tags and fusions are not shown.
UniProt P31645, whole entry: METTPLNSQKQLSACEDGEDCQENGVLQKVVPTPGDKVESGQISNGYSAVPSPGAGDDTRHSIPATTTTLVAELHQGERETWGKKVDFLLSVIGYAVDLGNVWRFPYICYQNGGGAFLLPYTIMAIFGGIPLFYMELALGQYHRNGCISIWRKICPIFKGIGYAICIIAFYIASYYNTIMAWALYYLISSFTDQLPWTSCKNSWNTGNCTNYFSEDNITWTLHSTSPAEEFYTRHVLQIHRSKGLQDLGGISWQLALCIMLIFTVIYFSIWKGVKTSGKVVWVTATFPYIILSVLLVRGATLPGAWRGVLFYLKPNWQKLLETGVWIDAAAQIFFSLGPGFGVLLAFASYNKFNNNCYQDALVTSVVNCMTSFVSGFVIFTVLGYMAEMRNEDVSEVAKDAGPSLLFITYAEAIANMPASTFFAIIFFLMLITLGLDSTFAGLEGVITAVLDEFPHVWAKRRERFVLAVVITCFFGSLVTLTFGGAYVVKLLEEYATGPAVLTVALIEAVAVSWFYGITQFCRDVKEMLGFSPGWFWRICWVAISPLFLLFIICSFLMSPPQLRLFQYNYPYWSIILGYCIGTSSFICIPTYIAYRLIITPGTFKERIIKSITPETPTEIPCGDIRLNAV

Target: T1, human serotonin transporter (hSERT) (Homo sapiens, UniProt P31645)
T1 construct: expressed in transfected cells; host or cells: HEK-293
Assay: Inhibition of 3H-serotonin uptake by HEK-293 cells transfected with hSERT
Type: cell-based
Conditions: for IC50: HEK-293 cells expressing hSERT, 3H-5HT 50 nM, 5 min incubation, read-out: serotonin re-uptake inhibition (SRI) IC50; for fold as potent in the inhibition of serotonin re-uptake than in the inhibition of dopamine re-uptake or noradrenaline re-uptake: selectivity hSERT over hDAT or hNET (at least one)

Row | IC50 | fold as potent in the inhibition of serotonin re-uptake than in the inhibition of dopamine re-uptake or noradrenaline re-uptake | SMILES
1 | ≤ 50 nM |  | CN(C)Cc1cnccc1Oc1ccc2ncccc2c1 [Example 99]
2 | ≤ 25 nM | more than 100 fold | CNCc1cnccc1Oc1ccc2c(c1)OCCS2 [Example 23]
3 | ≤ 25 nM | more than 100 fold | CNCc1ccncc1Oc1ccc(C)c(SC)c1 [Example 40]
4 | ≤ 25 nM | more than 100 fold | CN(C)Cc1cnccc1Oc1ccc2c(c1)SCC2 [Example 58, N-{[4-(2,3-Dihydro-1-benzothien-6-yloxy)-3-pyridinyl]methyl}-N,N-dimethylamine]
5 | ≤ 25 nM | more than 100 fold | COc1cc(Oc2ccncc2CN(C)C)ccc1SC [Example 94, N-({4-[3-Methoxy-4-(methylsulfanyl)phenoxy]-3-pyridinyl}methyl)-N,N-dimethylamine]
6 | ≤ 25 nM | more than 100 fold | CNCc1cnccc1Oc1ccc2c(c1)SCC2 [Example 25]
7 | ≤ 50 nM |  | CNCc1ccncc1Oc1ccc(SC)c(F)c1 [Example 36]
8 | ≤ 50 nM |  | CN(C)Cc1cccnc1Oc1ccc(Cl)cc1 [Example 106, [2-(4-Chlorophenoxy)-3-pyridinyl]-N,N-dimethylmethanamine hydrochloride]
9 | ≤ 50 nM |  | CNCc1cnccc1Oc1ccc(Cl)c(Cl)c1 [Example 103, [4-(3,4-Dichlorophenoxy)-3-pyridinyl]-N-methylmethanamine hydrochloride]

Further lines, the compound ahead of its results:

Row | SMILES | IC50 | fold as potent in the inhibition of serotonin re-uptake than in the inhibition of dopamine re-uptake or noradrenaline re-uptake
10 | CN(C)Cc1nccnc1Oc1ccc(C(F)(F)F)cc1 [Example 100, N,N-Dimethyl-N-({3-[4-(trifluoromethyl)phenoxy]-2-pyrazinyl}methyl)amine] | ≤ 50 nM | 
11 | CNCc1cnc(C)cc1Oc1ccc(Cl)c(SC)c1 [Example 55, {4-[4-Chloro-3-(methylsulfanyl)phenoxy]-6-methyl-3-pyridinyl}-N-methylmethanamine] | ≤ 25 nM | more than 100 fold
12 | CNCc1c[n+]([O-])ccc1Oc1ccc(SC)cc1 [Example 102, N-Methyl-N-({4-[4-(methylsulfanyl)phenoxy]-1-oxido-3-pyridinyl}methyl)amine] | ≤ 50 nM | 
13 | CNCc1ccncc1Oc1ccc2c(c1)CCC2 [Example 37] | ≤ 50 nM | 
14 | CNCc1cccnc1Oc1ccc(Cl)c(Cl)c1 [Example 105, [2-(3,4-Dichlorophenoxy)-3-pyridinyl]-N-methylmethanamine] | ≤ 25 nM | more than 100 fold
15 | CNCc1cnc(C)cc1Oc1ccc(SC)cc1 [Example 49] | ≤ 25 nM | more than 100 fold
16 | CNCc1cc2ccccc2nc1Oc1ccc(Cl)c(Cl)c1 [Example 104, [2-(3,4-Dichlorophenoxy)-3-quinolinyl]-N-methylmethanamine] | ≤ 50 nM | 
17 | CNCc1cnc(C)cc1Oc1ccc2c(c1)SCCO2 [Example 52] | ≤ 25 nM | more than 100 fold
18 | CNCc1ccncc1Oc1ccc(SC)c(C(F)(F)F)c1 [Example 39] | ≤ 50 nM | 
19 | CCc1ccc(Oc2cnccc2CNC)cc1 [Example 41] | ≤ 50 nM | 
20 | CN(C)Cc1cc(C(N)=O)cnc1Oc1ccc(OC(F)(F)F)cc1 [Example 108, 5-[(Dimethylamino)methyl]-6-[4-(trifluoromethoxy)phenoxy]nicotinamide] | ≤ 25 nM | more than 100 fold
21 | CNCc1ccncc1Oc1ccc2c(c1)SCC2 [Example 42] | ≤ 25 nM | more than 100 fold
